Results as given in patent US6653088.
Results are given in words; binding and its absence hold for the method and conditions named. For some of these results: In cells and extracts the contact can be indirect. Some binding calls cover weakened binding; strength is not graded here.

Sequences of proteins named here, by UniProt entry; tags and fusion partners are left off. A change or cut given only in a name is not applied to a line headed by its entry.
UniProt P05067: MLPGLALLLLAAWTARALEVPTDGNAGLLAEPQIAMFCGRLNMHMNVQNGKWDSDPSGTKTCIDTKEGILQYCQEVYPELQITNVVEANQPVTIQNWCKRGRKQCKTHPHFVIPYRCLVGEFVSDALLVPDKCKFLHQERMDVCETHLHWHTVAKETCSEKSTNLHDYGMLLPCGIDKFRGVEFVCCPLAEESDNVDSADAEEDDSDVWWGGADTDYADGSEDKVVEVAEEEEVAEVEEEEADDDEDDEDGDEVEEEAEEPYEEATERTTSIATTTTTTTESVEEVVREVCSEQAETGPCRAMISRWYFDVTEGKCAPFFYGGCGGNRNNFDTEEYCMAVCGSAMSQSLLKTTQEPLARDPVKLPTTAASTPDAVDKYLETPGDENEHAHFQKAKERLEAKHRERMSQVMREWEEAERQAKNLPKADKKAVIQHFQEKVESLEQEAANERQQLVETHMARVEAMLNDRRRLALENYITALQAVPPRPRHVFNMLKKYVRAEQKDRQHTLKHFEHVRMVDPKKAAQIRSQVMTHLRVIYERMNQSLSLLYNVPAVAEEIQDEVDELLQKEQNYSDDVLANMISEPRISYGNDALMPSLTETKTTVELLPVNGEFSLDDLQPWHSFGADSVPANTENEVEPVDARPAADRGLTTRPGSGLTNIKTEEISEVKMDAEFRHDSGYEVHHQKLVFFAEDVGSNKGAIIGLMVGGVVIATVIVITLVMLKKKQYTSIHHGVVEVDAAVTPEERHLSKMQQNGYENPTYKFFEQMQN

Legend:
[1] = target: Aβ peptide produced by COS cells expressing SPA4CT (human); assay: co-immunoprecipitation (legend of FIG. 7)
[2] = target: α-sAPP (human) (UniProt P05067); assay: co-immunoprecipitation (legend of FIG. 15)
[3] = target: β-sAPP (human) (UniProt P05067); assay: co-immunoprecipitation (legend of FIG. 15)
[4] = target: α-sAPP (human) (UniProt P05067); assay: co-immunoprecipitation from cotransfected cells
[5] = target: β-sAPP (human) (UniProt P05067); assay: co-immunoprecipitation from cotransfected cells
[6] = target: Aβ peptide produced by COS cells expressing SPA4CT (human); assay: immunoprecipitation of extracellular medium of cotransfected COS cells with anti-PS2 antibody, Aβ detected with W02; SDS-stable complex at approximately 40 kDa
[7] = target: SPA4CT (human) (UniProt P05067); assay: co-immunoprecipitation (legend of FIG. 4A)
[8] = target: C100 (human) (UniProt P05067); assay: co-immunoprecipitation (legend of FIG. 4B)
[9] = target: C100 (human) (UniProt P05067); assay: co-immunoprecipitation from cotransfected COS cells, detection with αCT43
[10] = target: SPA4CT (human) (UniProt P05067); assay: as above
[11] = target: precursor of the β-amyloid peptide (APP), isoform 695 (human) (UniProt P05067); assay: co-immunoprecipitation from COS cell lysate, anti-PS2 N-term antibody, anti-APP immunoblot
[12] = target: precursor of the β-amyloid peptide (APP), isoform 695 (human) (UniProt P05067); assay: co-immunoprecipitation from COS cell lysate, anti-PS2 N-term antibody 95041, anti-APP immunoblot

Measured: binding

SecPS2Nt (N-terminal hydrophilic end of PS2 preceded by the Igk signal peptide, secreted form) (from UniProt P49810 1-87)
binds: [1] | [2] | [3] | [4] | [5] | [6]

presenilin 2 (PS2) (from UniProt P49810 1-448)
not listed: [1] | [6]
binds: all other assays above
